PubChem BioAssay AID1224830 – NIAID, 2016

Aim: 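Host factors that control LPS-induced TNF expression in human macrophages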 (primary screen)
System: human THP-1 monocytic leukaemia cells, TNF dual-luciferase reporter clone, PMA-differentiated to macrophage-like cells
Reagent: siRNA pool against human genes, 50 nM
Time to read-out: LPS for 4 h, given about 3 days after siRNA transfection
Challenge: bacterial LPS (TLR4 ligand), 10 ng/ml
Measured: 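TNF firefly reporter luminescence divided by renilla, normalised to the plate median, then turned into a robust z-score for each replicate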
Scale: TNF reporter robust z-score: higher = stronger TNF reporter response to LPS
Call rule: 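a well is active when its z-score exceeds 2.8 or falls below -1.5; control wells carry no call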
The deposit covers about 18,000 reagents; below is an unselected part. In the full data, about 2,900 (16%) got an active call. 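Calls are made per well; low scores hint the gene aids the LPS response, high scores that it dampens it.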 Repeated entries: four replicate wells of each siRNA pool. Reagent sequences are not shown.

IQCH | TNF reporter robust z-score: 0.22; outcome: inactive
IQCH | TNF reporter robust z-score: 1.23; outcome: inactive
IQCH | TNF reporter robust z-score: 0.45; outcome: inactive
IQCH | TNF reporter robust z-score: 0.11; outcome: inactive
DYNC2I1 | TNF reporter robust z-score: 0.09; outcome: inactive
DYNC2I1 | TNF reporter robust z-score: -0.04; outcome: inactive
DYNC2I1 | TNF reporter robust z-score: 0.16; outcome: inactive
DYNC2I1 | TNF reporter robust z-score: -0.73; outcome: inactive

Next part (2 carried over from the part before).
DYNC2I1 | TNF reporter robust z-score: 0.16; outcome: inactive
DYNC2I1 | TNF reporter robust z-score: -0.73; outcome: inactive
SMC1B | TNF reporter robust z-score: 1.41; outcome: inactive
SMC1B | TNF reporter robust z-score: -0.1; outcome: inactive
SMC1B | TNF reporter robust z-score: 0.86; outcome: inactive
SMC1B | TNF reporter robust z-score: -0.64; outcome: inactive
ACVR1C | TNF reporter robust z-score: -0.25; outcome: inactive
ACVR1C | TNF reporter robust z-score: 0.16; outcome: inactive
ACVR1C | TNF reporter robust z-score: 0.94; outcome: inactive
ACVR1C | TNF reporter robust z-score: -0.42; outcome: inactive
DRG2 | TNF reporter robust z-score: -0.25; outcome: inactive
DRG2 | TNF reporter robust z-score: 0.76; outcome: inactive
DRG2 | TNF reporter robust z-score: -0.48; outcome: inactive
DRG2 | TNF reporter robust z-score: 0.6; outcome: inactive
